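Human melanoma cells were exposed to two drugs together for 72 h in 1,536-well plates and read by automated microscopy after fixing and staining. Each value is the cleaved-PARP-positive fraction of nuclei relative to DMSO-treated wells, in %, so that 100 equals the control and higher values mean more apoptosis. Every drug was used at one fixed concentration, the higher of two screened. The file gives one value for each pair and line, without errors, so small differences may be noise. Basal and induced levels differ widely between cell lines.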
An unselected part of the screen is shown.
An entry leaves out what has no value listed here.
A dash means that no value is listed here.

First drug in all entries: nilotinib, 1000 nM, Cc1cn(-c2cc(NC(=O)c3ccc(C)c(Nc4nccc(-c5cccnc5)n4)c3)cc(C(F)(F)F)c2)cn1

Drugs:
XAV939, 10000 nM: Oc1nc(-c2ccc(C(F)(F)F)cc2)nc2c1CSCC2
sunitinib, 2000 nM: CCN(CC)CCNC(=O)c1c(C)[nH]c(/C=C2\C(=O)Nc3ccc(F)cc32)c1C
ENMD-2076, 200 nM: Cc1cc(Nc2cc(N3CCN(C)CC3)nc(/C=C/c3ccccc3)n2)n[nH]1
YM155, 2 nM: COCC[n+]1c2c(n(Cc3cnccn3)c1C)C(=O)c1ccccc1C2=O
sorafenib, 2000 nM: CNC(=O)c1cc(Oc2ccc(NC(=O)Nc3ccc(Cl)c(C(F)(F)F)c3)cc2)ccn1
RKI-983, 2000 nM: C[C@@H](N)c1ccc(C(=O)Nc2ccnc3[nH]ccc23)cc1
gemcitabine, 2 nM: Nc1ccn([C@@H]2O[C@H](CO)[C@@H](O)C2(F)F)c(=O)n1
GW0742, 10000 nM: Cc1cc(SCc2sc(-c3ccc(C(F)(F)F)c(F)c3)nc2C)ccc1OCC(=O)O
TCS401, 8330 nM: O=C(O)C(=O)Nc1sc2c(c1C(=O)O)CCNC2
lapatinib, 4000 nM: CS(=O)(=O)CCNCc1ccc(-c2ccc3ncnc(Nc4ccc(OCc5cccc(F)c5)c(Cl)c4)c3c2)o1
enzastaurin, 4000 nM: Cn1cc(C2=C(c3cn(C4CCN(Cc5ccccn5)CC4)c4ccccc34)C(=O)NC2=O)c2ccccc21
SU6656, 2000 nM: CN(C)S(=O)(=O)c1ccc2c(c1)/C(=C/c1cc3c([nH]1)CCCC3)C(=O)N2
selumetinib, 75 nM: Cn1cnc2c(F)c(Nc3ccc(Br)cc3Cl)c(C(=O)NOCCO)cc21
VX-702, 2000 nM: NC(=O)c1ccc(N(C(N)=O)c2c(F)cccc2F)nc1-c1ccc(F)cc1F
OSU-03012, 5000 nM: NCC(=O)Nc1ccc(-n2nc(C(F)(F)F)cc2-c2ccc3c(ccc4ccccc43)c2)cc1
KU-55933, 5000 nM: O=c1cc(-c2cccc3c2Sc2ccccc2S3)oc(N2CCOCC2)c1
cediranib, 2000 nM: COc1cc2c(Oc3ccc4[nH]c(C)cc4c3F)ncnc2cc1OCCCN1CCCC1
darinaparsin, 2000 nM: C[As](C)SC[C@H](NC(=O)CC[C@H](N)C(=O)O)C(=O)NCC(=O)O
stibogluconate, 10000 nM: O=C(O)[C@@H]1[O][Sb](=[O])([O][Sb]2(=[O])[O][C@H]([C@H](O)CO)[C@H](O)[C@H](C(=O)O)[O]2)[O][C@H]([C@H](O)CO)[C@@H]1O (some centres undefined)
ruxolitinib, 5000 nM: N#CC[C@H](C1CCCC1)n1cc(-c2ncnc3[nH]ccc23)cn1
Src-I1, 10000 nM: COc1cc2ncnc(Nc3ccc(Oc4ccccc4)cc3)c2cc1OC
dovitinib, 500 nM: CN1CCN(c2ccc3nc(-c4c(N)c5c(F)cccc5[nH]c4=O)[nH]c3c2)CC1
SNS-314, 4 nM: O=C(Nc1cccc(Cl)c1)Nc1ncc(CCNc2ncnc3ccsc23)s1
dorsomorphin, 2000 nM: c1cc(-c2cnn3cc(-c4ccc(OCCN5CCCCC5)cc4)cnc23)ccn1
FK866, 50 nM: O=C(/C=C/c1cccnc1)NCCCCC1CCN(C(=O)c2ccccc2)CC1
GW9662, 10000 nM: O=C(Nc1ccccc1)c1cc([N+](=O)[O-])ccc1Cl

- ruxolitinib : LOX IMVI: 103; COLO 829: 112; LB2518-MEL: 138; RPMI-7951: 25.8; WM1745: 104; MeWo: 145; SK-MEL-2: 236
- XAV939 : LOX IMVI: 39.6; COLO 829: 59.5; LB2518-MEL: 89.2; RPMI-7951: 52.2; MeWo: 102; SK-MEL-2: 135
- sunitinib : LOX IMVI: 51.3; LB2518-MEL: 182; RPMI-7951: 173; WM1745: 147; MeWo: 109; SK-MEL-2: 170
- GW9662 : LOX IMVI: 146; COLO 829: 237; LB2518-MEL: 54.7; RPMI-7951: 84.2; MeWo: 175; SK-MEL-2: 106
- enzastaurin : LOX IMVI: 124; COLO 829: 67.1; LB2518-MEL: 125; RPMI-7951: 187; WM1745: 237; MeWo: 80.5; SK-MEL-2: 970
- cediranib : LOX IMVI: 241; COLO 829: 89.2; LB2518-MEL: 189; RPMI-7951: 247; WM1745: 101; MeWo: 60.9; SK-MEL-2: 72.4
- YM155 : LOX IMVI: 74.3; COLO 829: 152; LB2518-MEL: 447; RPMI-7951: 37.3; WM1745: 82.4; MeWo: 305; SK-MEL-2: 218
- dorsomorphin : LOX IMVI: 69.4; COLO 829: 130; LB2518-MEL: 180; RPMI-7951: 37.0; MeWo: 109; SK-MEL-2: 30.6
- OSU-03012 : LOX IMVI: 45.6; COLO 829: 385; LB2518-MEL: 207; RPMI-7951: 274; WM1745: 134; MeWo: 144; SK-MEL-2: 844
- FK866 : LOX IMVI: 132; COLO 829: 724; LB2518-MEL: 457; RPMI-7951: 218; WM1745: 93.3; MeWo: 136; SK-MEL-2: 8800
- dovitinib : LOX IMVI: 183; COLO 829: 114; LB2518-MEL: 125; RPMI-7951: 251; WM1745: 159; MeWo: 167; SK-MEL-2: 105
- darinaparsin : LOX IMVI: 47.6; COLO 829: 95.6; LB2518-MEL: 164; RPMI-7951: 57.9; WM1745: 117; MeWo: 108; SK-MEL-2: 208
- gemcitabine : LOX IMVI: 25.0; COLO 829: 90.9; LB2518-MEL: 150; RPMI-7951: 111; WM1745: 125; MeWo: 126; SK-MEL-2: 127
- KU-55933 : LOX IMVI: 72.4; COLO 829: 82.7; LB2518-MEL: 103; RPMI-7951: 137; MeWo: 119; SK-MEL-2: 160
- RKI-983 : LOX IMVI: 241; COLO 829: 38.9; LB2518-MEL: 273; RPMI-7951: 102; WM1745: 234; MeWo: 335; SK-MEL-2: 163
- Src-I1 : LOX IMVI: 119; COLO 829: 50.4; LB2518-MEL: 99.5; RPMI-7951: 138; MeWo: 21.6; SK-MEL-2: 120
- ENMD-2076 : LOX IMVI: 71.1; COLO 829: 81.4; LB2518-MEL: 166; RPMI-7951: 207; WM1745: 149; MeWo: 72.8; SK-MEL-2: 151
- SNS-314 : LOX IMVI: 118; COLO 829: 424; LB2518-MEL: 281; RPMI-7951: 204; WM1745: 115; MeWo: 118; SK-MEL-2: 156
- selumetinib : LOX IMVI: 96.0; COLO 829: 150; LB2518-MEL: 403; RPMI-7951: 77.4; WM1745: 304; MeWo: 98.6; SK-MEL-2: 506
- TCS401 : LOX IMVI: 83.6; COLO 829: 80.8; LB2518-MEL: 100; RPMI-7951: 114; MeWo: 110; SK-MEL-2: 65.6
- lapatinib : LOX IMVI: 116; COLO 829: 63.4; LB2518-MEL: 167; RPMI-7951: 231; WM1745: 130; MeWo: 128; SK-MEL-2: 134
- sorafenib : LOX IMVI: 228; COLO 829: 108; LB2518-MEL: 85.0; RPMI-7951: 142; WM1745: 105; MeWo: 96.6; SK-MEL-2: 115
- VX-702 : LOX IMVI: 73.8; COLO 829: 95.4; LB2518-MEL: 87.2; RPMI-7951: 108; WM1745: 98.0; MeWo: 64.8; SK-MEL-2: 176
- GW0742 : LOX IMVI: 50.9; COLO 829: 53.7; LB2518-MEL: 82.1; RPMI-7951: 40.5; MeWo: 58.5; SK-MEL-2: 96.5
- SU6656 : LOX IMVI: 92.0; COLO 829: 80.9; LB2518-MEL: 227; RPMI-7951: 226; WM1745: 145; MeWo: 101; SK-MEL-2: 94.1
- stibogluconate : LOX IMVI: 85.3; COLO 829: 108; LB2518-MEL: 35.6; RPMI-7951: 66.5; WM1745: 100; MeWo: 71.9; SK-MEL-2: 84.3

Once more, the final 3:

| Second drug | LOX IMVI | COLO 829 | LB2518-MEL | RPMI-7951 | WM1745 | MeWo | SK-MEL-2 |
|---|---|---|---|---|---|---|---|
| GW0742 | 50.9 | 53.7 | 82.1 | 40.5 | - | 58.5 | 96.5 |
| SU6656 | 92.0 | 80.9 | 227 | 226 | 145 | 101 | 94.1 |
| stibogluconate | 85.3 | 108 | 35.6 | 66.5 | 100 | 71.9 | 84.3 |

Source: doi:10.1371/journal.pone.0140310, primary screening data, rounded.